Measurements as given in PMC9061850.
Results are given in words; binding and its absence hold for the method and conditions named. Some results given as binding are weak or reduced against the parent protein; the word gives no strength.

Biological target: IAPP fibrils (preformed mature amyloid fibrils of human IAPP) (human)
Experiment: negative-stain electron microscopy; preformed IAPP fibrils (67 µM monomer equivalent) incubated with PhPFD at 100:1 for 30 min, stained with sodium silicotungstate, imaged at 30,000x; both purified

B1: Prefoldin from Pyrococcus horikoshii (PhPFD, α2β4 heterohexamer, 86.4 kDa) (complex, UniProt O58263 1-148; O58268 1-117)
chain 1: MAQNNKELEKLAYEYQVLQAQAQILAQNLELLNLAKAEVQTVRETLENLKKIEEEKPEILVPIGAGSFLKGVIVDKNNAIVSVGSGYAVERSIDEAIGFLEKRLKEYDEAIKKTQGALAELEKRIGEVARKAQEVQQKQSMTSFKVKK
chain 2: MQNIPPQVQAMLGQLDTYQQQLQLVIQQKQKVQADLNEAKKALEEIETLPDDAQIYKTVGTLIVKTTKEKAVQELKEKIETLEVRLNALNRQEQKINEKVKELTQKIQAALRPPTAG
With B1 the binding was “binds”.
